Laboratory results published in paper PMC7028737.
No constants are given. Whether binding was seen depends on the method and setting. In cells and extracts the contact can be indirect. A yes stands for co-enrichment or nearness to the bait. Other partners may have been found. No binding means not detected with the bait.

Sequences of proteins named here, by UniProt entry; tags and fusion partners are left off. A change or cut given only in a name is not applied to a line headed by its entry. A line that says so, or that is headed by a name, gives the form on record, which may keep a tag or linker.
FIR-FLAG (far-upstream element-binding protein (FUBP) 1-interacting repressor) (Q9UHX1, form named): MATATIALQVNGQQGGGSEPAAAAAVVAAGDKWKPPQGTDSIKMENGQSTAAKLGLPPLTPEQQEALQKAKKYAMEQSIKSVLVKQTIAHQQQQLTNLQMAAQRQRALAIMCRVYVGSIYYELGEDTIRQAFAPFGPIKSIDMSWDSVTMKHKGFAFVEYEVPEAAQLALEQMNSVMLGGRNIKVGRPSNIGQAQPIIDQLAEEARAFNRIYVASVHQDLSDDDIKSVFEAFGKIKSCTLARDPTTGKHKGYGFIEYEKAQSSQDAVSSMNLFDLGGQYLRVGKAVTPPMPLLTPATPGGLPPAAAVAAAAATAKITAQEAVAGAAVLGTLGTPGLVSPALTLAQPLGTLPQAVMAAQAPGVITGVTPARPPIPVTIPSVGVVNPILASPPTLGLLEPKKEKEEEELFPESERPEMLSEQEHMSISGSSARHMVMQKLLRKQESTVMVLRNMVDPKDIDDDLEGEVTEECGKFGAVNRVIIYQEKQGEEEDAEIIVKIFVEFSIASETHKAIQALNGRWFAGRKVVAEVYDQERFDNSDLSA
UniProt Q09161: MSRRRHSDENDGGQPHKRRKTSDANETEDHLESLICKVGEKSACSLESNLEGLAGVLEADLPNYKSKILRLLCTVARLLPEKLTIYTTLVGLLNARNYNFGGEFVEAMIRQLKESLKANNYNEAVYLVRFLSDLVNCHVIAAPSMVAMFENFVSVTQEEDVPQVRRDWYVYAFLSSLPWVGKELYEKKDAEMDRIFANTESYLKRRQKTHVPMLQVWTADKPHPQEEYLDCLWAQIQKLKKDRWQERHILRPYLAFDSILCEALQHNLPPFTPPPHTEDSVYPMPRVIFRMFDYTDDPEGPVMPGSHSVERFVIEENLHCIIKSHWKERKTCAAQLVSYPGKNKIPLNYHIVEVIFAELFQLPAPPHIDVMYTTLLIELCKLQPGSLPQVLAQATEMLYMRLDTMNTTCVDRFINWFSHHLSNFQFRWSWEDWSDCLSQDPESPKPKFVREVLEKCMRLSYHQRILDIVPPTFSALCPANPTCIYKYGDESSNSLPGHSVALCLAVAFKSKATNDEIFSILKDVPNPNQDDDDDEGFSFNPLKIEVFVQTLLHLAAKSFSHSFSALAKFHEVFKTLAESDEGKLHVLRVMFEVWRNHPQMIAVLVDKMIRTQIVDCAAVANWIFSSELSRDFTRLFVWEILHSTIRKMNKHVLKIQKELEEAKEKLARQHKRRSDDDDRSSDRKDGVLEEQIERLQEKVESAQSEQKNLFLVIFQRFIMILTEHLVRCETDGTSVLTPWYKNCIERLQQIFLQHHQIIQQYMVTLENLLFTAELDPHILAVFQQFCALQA
UniProt Q9UHB6: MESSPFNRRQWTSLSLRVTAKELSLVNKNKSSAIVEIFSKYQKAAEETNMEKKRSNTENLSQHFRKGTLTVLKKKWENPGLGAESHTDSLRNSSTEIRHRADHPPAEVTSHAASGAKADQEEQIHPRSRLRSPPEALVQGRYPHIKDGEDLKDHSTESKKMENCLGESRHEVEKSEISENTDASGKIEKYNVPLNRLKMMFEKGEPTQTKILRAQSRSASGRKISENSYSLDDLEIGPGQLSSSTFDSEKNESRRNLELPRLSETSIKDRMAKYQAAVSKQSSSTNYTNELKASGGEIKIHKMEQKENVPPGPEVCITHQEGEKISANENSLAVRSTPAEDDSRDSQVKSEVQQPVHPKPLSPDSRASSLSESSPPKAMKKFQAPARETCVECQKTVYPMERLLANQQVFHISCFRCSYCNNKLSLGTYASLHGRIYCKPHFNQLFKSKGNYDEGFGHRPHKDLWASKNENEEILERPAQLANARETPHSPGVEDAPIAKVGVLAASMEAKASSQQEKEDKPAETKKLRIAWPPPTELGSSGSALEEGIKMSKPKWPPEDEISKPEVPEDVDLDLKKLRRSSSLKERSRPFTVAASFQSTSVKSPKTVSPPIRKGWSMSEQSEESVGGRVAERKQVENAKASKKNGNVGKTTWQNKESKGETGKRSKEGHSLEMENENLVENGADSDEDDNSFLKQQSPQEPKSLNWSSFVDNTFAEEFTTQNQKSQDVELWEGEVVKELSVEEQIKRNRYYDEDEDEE
UniProt Q14839: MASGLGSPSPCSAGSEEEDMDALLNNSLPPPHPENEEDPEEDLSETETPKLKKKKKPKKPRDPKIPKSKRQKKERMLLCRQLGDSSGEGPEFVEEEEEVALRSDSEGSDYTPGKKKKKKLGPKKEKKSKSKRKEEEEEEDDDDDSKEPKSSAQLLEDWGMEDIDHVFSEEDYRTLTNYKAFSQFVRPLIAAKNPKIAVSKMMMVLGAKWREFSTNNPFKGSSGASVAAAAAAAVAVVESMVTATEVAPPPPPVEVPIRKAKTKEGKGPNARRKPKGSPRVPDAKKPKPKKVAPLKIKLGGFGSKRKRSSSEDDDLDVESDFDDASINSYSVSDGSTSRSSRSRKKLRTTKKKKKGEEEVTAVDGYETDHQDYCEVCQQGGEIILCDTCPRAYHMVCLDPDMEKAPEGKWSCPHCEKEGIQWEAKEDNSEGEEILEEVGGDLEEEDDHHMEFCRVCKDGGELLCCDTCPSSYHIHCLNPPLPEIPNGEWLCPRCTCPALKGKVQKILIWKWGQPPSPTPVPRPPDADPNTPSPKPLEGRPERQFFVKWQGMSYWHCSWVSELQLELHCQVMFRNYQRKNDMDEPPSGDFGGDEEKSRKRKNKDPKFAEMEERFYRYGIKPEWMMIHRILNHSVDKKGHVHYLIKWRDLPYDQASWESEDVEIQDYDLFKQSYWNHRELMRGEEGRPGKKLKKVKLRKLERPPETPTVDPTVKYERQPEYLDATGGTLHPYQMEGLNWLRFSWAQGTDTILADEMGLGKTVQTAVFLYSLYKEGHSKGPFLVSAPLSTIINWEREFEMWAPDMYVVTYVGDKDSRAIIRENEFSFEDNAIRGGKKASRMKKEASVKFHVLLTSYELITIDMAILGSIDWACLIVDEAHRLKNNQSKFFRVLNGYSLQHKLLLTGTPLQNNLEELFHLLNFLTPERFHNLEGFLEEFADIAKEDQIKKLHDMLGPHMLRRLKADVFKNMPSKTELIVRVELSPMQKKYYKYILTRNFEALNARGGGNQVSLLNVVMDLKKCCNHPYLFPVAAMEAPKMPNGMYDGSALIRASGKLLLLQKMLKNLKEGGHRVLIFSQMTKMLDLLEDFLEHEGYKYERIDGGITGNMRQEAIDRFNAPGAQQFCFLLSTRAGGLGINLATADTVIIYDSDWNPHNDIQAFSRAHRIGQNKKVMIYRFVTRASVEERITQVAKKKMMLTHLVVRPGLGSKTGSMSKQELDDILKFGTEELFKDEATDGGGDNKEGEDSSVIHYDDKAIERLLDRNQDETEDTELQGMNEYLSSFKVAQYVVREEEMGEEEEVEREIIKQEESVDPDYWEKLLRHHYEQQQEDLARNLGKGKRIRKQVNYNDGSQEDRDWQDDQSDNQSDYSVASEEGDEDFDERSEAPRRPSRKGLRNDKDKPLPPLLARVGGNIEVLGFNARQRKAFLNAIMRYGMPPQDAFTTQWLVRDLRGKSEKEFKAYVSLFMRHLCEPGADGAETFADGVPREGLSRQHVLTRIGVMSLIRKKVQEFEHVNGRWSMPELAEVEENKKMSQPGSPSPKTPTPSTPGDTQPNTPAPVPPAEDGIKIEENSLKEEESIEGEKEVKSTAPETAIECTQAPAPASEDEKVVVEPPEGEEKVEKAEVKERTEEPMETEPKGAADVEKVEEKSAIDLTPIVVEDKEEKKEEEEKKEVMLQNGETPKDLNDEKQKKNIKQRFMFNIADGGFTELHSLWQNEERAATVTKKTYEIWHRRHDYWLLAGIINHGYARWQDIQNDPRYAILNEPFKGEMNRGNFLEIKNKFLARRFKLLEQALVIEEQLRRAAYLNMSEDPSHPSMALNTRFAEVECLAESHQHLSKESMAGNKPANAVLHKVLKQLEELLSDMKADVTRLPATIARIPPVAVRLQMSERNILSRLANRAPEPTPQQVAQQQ
UniProt O15020: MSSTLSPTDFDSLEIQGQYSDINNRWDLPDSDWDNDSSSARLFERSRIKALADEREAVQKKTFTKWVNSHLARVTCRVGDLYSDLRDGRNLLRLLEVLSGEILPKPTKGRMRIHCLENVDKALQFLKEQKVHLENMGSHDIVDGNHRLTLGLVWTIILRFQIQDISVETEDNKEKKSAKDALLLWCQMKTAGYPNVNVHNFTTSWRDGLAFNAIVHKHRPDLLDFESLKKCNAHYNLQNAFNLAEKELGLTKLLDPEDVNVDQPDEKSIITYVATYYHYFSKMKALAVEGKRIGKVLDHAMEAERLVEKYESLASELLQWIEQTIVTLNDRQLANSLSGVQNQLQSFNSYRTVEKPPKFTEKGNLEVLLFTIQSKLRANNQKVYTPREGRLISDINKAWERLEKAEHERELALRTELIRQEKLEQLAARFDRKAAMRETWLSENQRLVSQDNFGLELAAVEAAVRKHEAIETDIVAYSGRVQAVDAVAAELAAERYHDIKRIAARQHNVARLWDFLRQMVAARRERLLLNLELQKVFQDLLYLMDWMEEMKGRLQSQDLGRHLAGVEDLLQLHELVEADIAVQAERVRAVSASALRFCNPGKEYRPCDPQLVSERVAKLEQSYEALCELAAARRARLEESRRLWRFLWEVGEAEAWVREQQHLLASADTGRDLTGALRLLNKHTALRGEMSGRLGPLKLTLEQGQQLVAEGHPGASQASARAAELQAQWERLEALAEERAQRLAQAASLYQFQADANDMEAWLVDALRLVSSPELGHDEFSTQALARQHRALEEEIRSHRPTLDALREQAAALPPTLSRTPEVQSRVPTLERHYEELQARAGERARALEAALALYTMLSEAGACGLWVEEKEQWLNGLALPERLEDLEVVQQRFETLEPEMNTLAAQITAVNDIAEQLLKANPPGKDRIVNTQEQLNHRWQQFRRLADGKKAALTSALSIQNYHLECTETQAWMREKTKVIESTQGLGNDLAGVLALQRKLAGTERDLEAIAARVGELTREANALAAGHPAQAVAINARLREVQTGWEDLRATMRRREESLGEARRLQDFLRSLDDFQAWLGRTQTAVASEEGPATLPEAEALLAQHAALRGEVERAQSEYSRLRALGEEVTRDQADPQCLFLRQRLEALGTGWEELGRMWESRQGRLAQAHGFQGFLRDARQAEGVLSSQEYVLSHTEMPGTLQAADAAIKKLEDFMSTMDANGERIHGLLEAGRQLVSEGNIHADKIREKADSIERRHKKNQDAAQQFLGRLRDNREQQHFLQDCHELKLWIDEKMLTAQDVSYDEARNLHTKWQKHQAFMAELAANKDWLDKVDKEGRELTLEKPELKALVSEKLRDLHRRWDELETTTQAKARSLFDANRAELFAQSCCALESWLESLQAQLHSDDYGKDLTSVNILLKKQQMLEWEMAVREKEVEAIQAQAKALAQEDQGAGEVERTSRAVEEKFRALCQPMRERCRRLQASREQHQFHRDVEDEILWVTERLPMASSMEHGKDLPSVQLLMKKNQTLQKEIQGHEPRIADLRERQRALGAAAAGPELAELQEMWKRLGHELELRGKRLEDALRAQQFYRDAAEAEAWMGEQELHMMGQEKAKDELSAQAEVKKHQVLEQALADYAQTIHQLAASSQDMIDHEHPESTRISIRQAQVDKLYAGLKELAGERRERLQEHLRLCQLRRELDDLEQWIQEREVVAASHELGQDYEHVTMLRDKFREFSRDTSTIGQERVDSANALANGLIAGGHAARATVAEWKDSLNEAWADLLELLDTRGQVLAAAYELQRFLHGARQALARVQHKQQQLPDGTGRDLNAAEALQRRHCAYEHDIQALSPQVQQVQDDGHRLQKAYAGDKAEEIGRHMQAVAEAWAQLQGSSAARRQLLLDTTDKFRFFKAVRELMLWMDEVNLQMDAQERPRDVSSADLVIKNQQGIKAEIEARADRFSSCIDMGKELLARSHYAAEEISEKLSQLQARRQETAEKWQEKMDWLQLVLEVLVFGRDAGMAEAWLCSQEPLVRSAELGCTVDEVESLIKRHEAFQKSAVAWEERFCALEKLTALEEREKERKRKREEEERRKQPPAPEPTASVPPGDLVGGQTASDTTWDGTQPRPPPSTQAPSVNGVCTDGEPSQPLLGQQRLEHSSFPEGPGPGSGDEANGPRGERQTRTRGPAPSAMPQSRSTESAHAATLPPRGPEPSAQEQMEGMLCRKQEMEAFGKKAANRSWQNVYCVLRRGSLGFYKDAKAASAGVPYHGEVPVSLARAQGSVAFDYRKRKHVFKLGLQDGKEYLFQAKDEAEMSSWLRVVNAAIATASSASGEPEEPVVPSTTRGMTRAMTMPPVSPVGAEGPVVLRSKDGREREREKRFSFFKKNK
UniProt P07737: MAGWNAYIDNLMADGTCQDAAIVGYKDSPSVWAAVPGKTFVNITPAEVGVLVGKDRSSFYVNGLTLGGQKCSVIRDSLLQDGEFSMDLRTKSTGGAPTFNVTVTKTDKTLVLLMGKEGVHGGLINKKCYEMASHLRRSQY

What follows are molecules tested against FIR-FLAG (far-upstream element-binding protein (FUBP) 1-interacting repressor) (human) (UniProt Q9UHX1) (assay: affinity purification with mass spectrometry; Flag-conjugated beads pull down of FIR-FLAG or FIRΔexon2-FLAG from HeLa cells, GeLC-MS / LC-MS; data first obtained with the cell systems of ref. 9 and re-evaluated here).

Row | Molecule | binding
1 | Importin subunit beta-1 (from UniProt Q14974 1-876) | binds
2 | Splicing factor 3B subunit 1(SAP155) (from UniProt O75533 1-1304) | binds
3 | Tricarboxylate transport protein, mitochondrial (from UniProt P53007 14-311) | binds
4 | Nuclear cap-binding protein subunit 1 (from UniProt Q09161 1-790) | binds
5 | TDP43 (from UniProt Q13148 1-414) | binds
6 | Isoform 1 of Sequestosome-1 (from UniProt Q13501 1-440) | binds
7 | Isoform 1 of Drebrin (from UniProt Q16643 1-649) | binds
8 | LIM domain and actin-binding 1 isoform a (from UniProt Q9UHB6 1-759) | binds
9 | Isoform 1 of Fragile X mental retardation syndrome-related protein 1 (from UniProt P51114 1-621) | binds
10 | Protein MAK16 homolog (from UniProt Q9BXY0 1-300) | binds
11 | Isoform 1 of Heterogeneous nuclear ribonucleoprotein Q (from UniProt O60506 1-623) | binds
12 | Apolipoprotein A-I (from UniProt P02647 19-267) | binds
13 | protein phosphatase 1, regulatory subunit 9B (from UniProt Q96SB3 1-817) | binds
14 | 14-3-3 protein epsilon (from UniProt P62258 1-255) | binds
15 | Poly [ADP-ribose] polymerase 1 (from UniProt P09874 1-1014) | binds
16 | Isoform 1 of Chromodomain-helicase-DNA-binding protein 4 (from UniProt Q14839 1-1912) | binds
17 | Isoform 1 of Nexilin (from UniProt Q0ZGT2 1-675) | binds
18 | Heat shock protein HSP 90-beta (from UniProt P08238 1-724) | binds
19 | Isoform 1 of Spectrin beta chain, brain 2 (from UniProt O15020 1-2390) | binds
20 | Isoform 1 of Actin-binding LIM protein 1 (from UniProt O14639 1-778) | binds
21 | Cystatin-A (from UniProt P01040 1-98) | binds

Row | Molecule | binding
22 | F-actin-capping protein subunit alpha-2 (from UniProt P47755 1-286) | binds
23 | Isoform 1 of Guanine nucleotide-binding protein G(i), alpha-2 subunit (from UniProt P04899 1-355) | binds
24 | Src substrate cortactin (from UniProt Q14247 1-550) | binds
25 | cDNA FLJ37875 fis, clone BRSSN2018771, highly similar to Poly(A)-binding protein 1 (from UniProt P11940 1-636) | binds
26 | Cofilin-1 (from UniProt P23528 1-166) | binds
27 | Ribosome biogenesis protein BOP1 (from UniProt Q14137 1-746) | binds
28 | Isoform 1 of DNA-dependent protein kinase catalytic subunit (from UniProt P78527 1-4128) | binds
29 | Isoform 1 of U5 small nuclear ribonucleoprotein 200 kDa helicase (from UniProt O75643 1-2136) | binds
30 | Isoform 1 of Transformation/transcription domain-associated protein (from UniProt Q9Y4A5 1-3859) | no binding
31 | Fragile X mental retardation syndrome-related protein 2 (from UniProt P51116 1-673) | binds
32 | 60 kDa heat shock protein, mitochondrial (from UniProt P10809 27-573) | binds
33 | Profilin-1 (from UniProt P07737 1-140) | binds
34 | epiplakin 1 (from UniProt P58107 1-5088) | binds
35 | Actin-related protein 2/3 complex subunit 1B (from UniProt O15143 1-372) | binds
36 | Actin-related protein 2/3 complex subunit 1 A (from UniProt Q92747 1-370) | binds
37 | RNA-binding protein, autoantigenic (HnRNP-associated with lethal yellow homolog (Mouse)), isoform CRA_a (Fragment) (from UniProt Q9UKM9 1-306) | binds
38 | Tropomodulin-1 (protein, UniProt P28289 1-359) MSYRRELEKYRDLDEDEILGALTEEELRTLENELDELDPDNALLPAGLRQKDQTTKAPTGPFKREELLDHLEKQAKEFKDREDLVPYTGEKRGKVWVPKQKPLDPVLESVTLEPELEEALANASDAELCDIAAILGMHTLMSNQQYYQALSSSSIMNKEGLNSVIKPTQYKPVPDEEPNSTDVEETLERIKNNDPKLEEVNLNNIRNIPIPTLKAYAEALKENSYVKKFSIVGTRSNDPVAYALAEMLKENKVLKTLNVESNFISGAGILRLVEALPYNTSLVEMKIDNQSQPLGNKVEMEIVSMLEKNATLLKFGYHFTQQGPRLRASNAMMNNNDLVRKRRLADLTGPIIPKCRSGV | binds
39 | Isoform 1 of Probable ATP-dependent RNA helicase DDX31 (protein, UniProt Q9H8H2 1-851) MAPDLASQRHSESFPSVNSRPNVILPGREGRREGLPPGGGTRGSLVPTRPVPPSPAPLGTSPYSWSRSGPGRGGGAGSSRVPRGVPGPAVCAPGSLLHHASPTQTMAAADGSLFDNPRTFSRRPPAQASRQAKATKRKYQASSEAPPAKRRNETSFLPAKKTSVKETQRTFKGNAQKMFSPKKHSVSTSDRNQEERQCIKTSSLFKNNPDIPELHRPVVKQVQEKVFTSAAFHELGLHPHLISTINTVLKMSSMTSVQKQSIPVLLEGRDALVRSQTGSGKTLAYCIPVVQSLQAMESKIQRSDGPYALVLVPTRELALQSFDTVQKLLKPFTWIVPGVLMGGEKRKSEKARLRKGINILISTPGRLVDHIKSTKNIHFSRLRWLVFDEADRILDLGFEKDITVILNAVNAECQKRQNVLLSATLTEGVTRLADISLHDPVSISVLDKSHDQLNPKDKAVQEVCPPPAGDKLDSFAIPESLKQHVTVVPSKLRLVCLAAFILQKCKFEEDQKMVVFFSSCELVEFHYSLFLQTLLSSSGAPASGQLPSASMRLKFLRLHGGMEQEERTAVFQEFSHSRRGVLLCTDVAARGLDLPQVTWIVQYNAPSSPAEYIHRIGRTARIGCHGSSLLILAPSEAEYVNSLASHKINVSEIKMEDILCVLTRDDCFKGKRWGAQKSHAVGPQEIRERATVLQTVFEDYVHSSERRVSWAKKALQSFIQAYATYPRELKHIFHVRSLHLGHVAKSFGLRDAPRNLSALTRKKRKAHVKRPDLHKKTQSKHSLAEILRSEYSSGMEADIAKVKKQNAPGEPGGRPLQHSLQPTPCFGRGKTLKWRKTQKGVQRDSKTSQKV | binds
40 | Myosin-Ie (protein, UniProt Q12965 1-1108) MGSKGVYQYHWQSHNVKHSGVDDMVLLSKITENSIVENLKKRYMDDYIFTYIGSVLISVNPFKQMPYFGEKEIEMYQGAAQYENPPHIYALADNMYRNMIIDRENQCVIISGESGAGKTVAAKYIMSYISRVSGGGTKVQHVKDIILQSNPLLEAFGNAKTVRNNNSSRFGKYFEIQFSPGGEPDGGKISNFLLEKSRVVMRNPGERSFHIFYQLIEGASAEQKHSLGITSMDYYYYLSLSGSYKVDDIDDRREFQETLHAMNVIGIFAEEQTLVLQIVAGILHLGNISFKEVGNYAAVESEEFLAFPAYLLGINQDRLKEKLTSRQMDSKWGGKSESIHVTLNVEQACYTRDALAKALHARVFDFLVDSINKAMEKDHEEYNIGVLDIYGFEIFQKNGFEQFCINFVNEKLQQIFIELTLKAEQEEYVQEGIRWTPIEYFNNKIVCDLIENKVNPPGIMSILDDVCATMHAVGEGADQTLLQKLQMQIGSHEHFNSWNQGFIIHHYAGKVSYDMDGFCERNRDVLFMDLIELMQSSELPFIKSLFPENLQADKKGRPTTAGSKIKKQANDLVSTLMKCTPHYIRCIKPNETKKPRDWEESRVKHQVEYLGLKENIRVRRAGYAYRRIFQKFLQRYAILTKATWPSWQGEEKQGVLHLLQSVNMDSDQFQLGRSKVFIKAPESLFLLEEMRERKYDGYARVIQKSWRKFVARKKYVQMREEASDLLLNKKERRRNSINRNFIGDYIGMEEHPELQQFVGKREKIDFADTVTKYDRRFKGVKRDLLLTPKCLYLIGREKVKQGPDKGLVKEVLKRKIEIERILSVSLSTMQDDIFILHEQEYDSLLESVFKTEFLSLLAKRYEEKTQKQLPLKFSNTLELKLKKENWGPWSAGGSRQVQFHQGFGDLAVLKPSNKVLQVSIGPGLPKNSRPTRRNTTQNTGYSSGTQNANYPVRAAPPPPGYHQNGVIRNQYVPYPHAPGSQRSNQKSLYTSMARPPLPRQQSTSSDRVSQTPESLDFLKVPDQGAAGVRRQTTSRPPPAGGRPKPQPKPKPQVPQCKALYAYDAQDTDELSFNANDIIDIIKEDPSGWWTGRLRGKQGLFPNNYVTKI | binds
41 | EF-hand domain-containing protein D1 (protein, UniProt Q9BUP0 1-239) MASEELACKLERRLRREEAEESGPQLAPLGAPAPEPKPEPEPPARAPTASADAELSAQLSRRLDINEGAARPRRCRVFNPYTEFPEFSRRLIKDLESMFKLYDAGRDGFIDLMELKLMMEKLGAPQTHLGLKSMIKEVDEDFDGKLSFREFLLIFHKAAAGELQEDSGLMALAKLSEIDVALEGVKGAKNFFEAKVQALSSASKFEAELKAEQDERKREEEERRLRQAAFQKLKANFNT | binds
